# Reference: PubChem BioAssay AID493014 (National Center for Advancing Translational Sciences (NCATS), 2011)
# This is one part of the list. Shown are side measurements of this screen, not its main read-out; they come without a call. The list favours compounds with an active or inconclusive main result. Potencies come from curve fits of mixed quality, noted in brackets.
# Experiment: qHTS Assay to Find Inhibitors of Chronic Active B-Cell Receptor Signaling
# Details: ABC-DLBCL IkBa-CBG/CBR reporter, luminescence ratio (green luciferase fused to IkBa over red control in TMD8 lymphoma cells), 4 h
# Method in brief: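 Compounds up to 46 uM were incubated four hours with TMD8 cells whose green CBG68 luciferase is fused to IkappaBalpha; red CBR luminescence normalised the signal, and concentration-effect curves were fitted to fusion, red and ratio data.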
# [1] = measured here: CBR red luminescence, cell number
# [2] = measured here: IkBa-CBG green luminescence
SMILES,AC50 [1],AC50 [2]
O=C(CSc1nc(=O)n2cc(Cl)ccc2n1)Nc1ccc2c(c1)OCCO2,"18.4 µM [falling, partial curve]",
O=C(NCC1CCCO1)c1cc([N+](=O)[O-])ccc1Cl (stereo unspecified),"5.01 µM [rising, full curve, poor fit]",
CC(C)(C)N=C1NN=C(c2cc3ccccc3o2)CS1,,"20.6 µM [rising, partial curve, poor fit]"
NC(=O)c1ccc(N2CCOCC2)nc1,"35.5 µM [rising, single point]",
O=C(OCCOc1ccccc1)c1cccc(S(=O)(=O)N2CCOCC2)c1,"32.6 µM [rising, partial curve, poor fit]",
O=C(NCc1ccccc1)c1cc(Sc2cccc(Cl)c2)nc2ccccc12,"10 µM [rising, partial curve]",
Cc1cc(=O)[nH]c(S/C=C/c2ccccc2)n1,"1.64 µM [falling, partial curve, poor fit]",
O=C(Nc1ccc2c(c1)CCCN2C(=O)c1cccs1)c1cccc(F)c1,"35.5 µM [falling, single point]",
CN(C)/C=C/C(=O)c1cnc(-c2cccc(Cl)c2)s1,"7.08 µM [falling, partial curve]",
Oc1c(Cl)cc(Cl)cc1CNc1ccccn1,"12.6 µM [rising, partial curve]","14.1 µM [falling, single point]"
O=C(CSc1nnc2ccccn12)Nc1cccc(-c2nc3ccccc3s2)c1,"6.51 µM [falling, partial curve]",
CCOc1ccccc1NC(=O)Cn1nnc(C(=O)NCc2cccs2)c1N,"1.41 µM [rising, full curve, poor fit]","5.01 µM [falling, partial curve]"
CCOC(=O)c1c(C)oc2c1c(C(c1cccnc1)N1CCOCC1)c(O)c1ccccc12 (stereo unspecified),"1.26 µM [rising, full curve, poor fit]",
O=C(Cc1cc(=O)[nH]c(=O)[nH]1)NCCN1CCOCC1,"29.1 µM [rising, partial curve, poor fit]",
COc1ccc(C(=O)NCC(=O)N/N=C/c2ccc([N+](=O)[O-])s2)cc1OC,"35.5 µM [falling, single point]",
O=C(/C=C/c1ccccc1Cl)Nc1ccc(S(=O)(=O)Nc2ncccn2)cc1,"11.2 µM [falling, partial curve, poor fit]",
COc1ccc(-c2cc(C(=O)N3CCN(C(c4ccccc4)c4ccccc4)CC3)no2)cc1OC,"6.31 µM [falling, partial curve, poor fit]",
O=C(Nc1cccc(C(=O)Nc2ccc(Cl)cn2)c1)c1ccccc1,"14.1 µM [falling, single point]",
O=C(CN1CCN(C(C(=O)Nc2ccc(F)cc2)c2ccccc2)CC1)NC1CC1 (stereo unspecified),"6.51 µM [rising, partial curve, poor fit]",
O=C(Nc1ccccc1F)c1ccc(Cn2cc(Br)cn2)cc1,"15.8 µM [falling, single point]",
Cc1cc(Br)ccc1SCC(=O)NCC(c1ccco1)N1CCCCC1 (stereo unspecified),"23.1 µM [falling, partial curve, poor fit]",

SMILES,AC50 [1],AC50 [2]
CC(=O)Oc1cccc(C(=O)Nc2cccc(C(=O)Nc3ccccc3C(=O)O)c2)c1,"12.6 µM [falling, partial curve]",
Cc1cc(Nc2ccccc2)nn1C(=O)c1ccc(Cl)cc1,"23.1 µM [rising, partial curve]",
COc1cccc(-c2cc(C(=O)NCC3CCCO3)on2)c1 (stereo unspecified),"14.1 µM [falling, partial curve]",
Cc1cc2cc(CN(Cc3cccs3)Cc3nnnn3CC3CCCO3)c(=O)[nH]c2cc1C (stereo unspecified),"16.4 µM [falling, partial curve, poor fit]",
Brc1ccccc1OCCOc1cccc2cccnc12,"0.651 µM [rising, full curve]",
COc1ccc(OC)c(C(c2nnnn2CC2CCCO2)N2CCN(C)CC2)c1 (stereo unspecified),"29.1 µM [rising, single point]",
O=C(O)c1ccc(-c2ccco2)n1Cc1ccccc1,"29.1 µM [falling, single point]",
OC(CN1C2=NCCN2c2ccccc21)c1ccc2c(c1)OCO2 (stereo unspecified),"22.4 µM [falling, single point]",
c1ccc(CCc2ccccc2-c2nc(-c3ccccn3)no2)cc1,"25.9 µM [rising, single point]",
O=C(Cc1ccccc1)Nc1ccccc1N1CCCC1,"35.5 µM [rising, partial curve, poor fit]",
CCC(CC)NC(=O)Nc1ccccc1C(F)(F)F,"12.6 µM [rising, single point]",
O=C(NCCSc1ccccc1)c1ccc(Br)cc1,"29.1 µM [falling, single point]",
COc1cc(CC(=O)OCC(=O)c2ccc3c(c2)OCCO3)cc(OC)c1OC,"14.6 µM [rising, partial curve, poor fit]","9.2 µM [falling, partial curve]"
CCn1cc([N+](=O)[O-])c(C(=O)N2N=C(c3ccc(Cl)c(Cl)c3)CC2c2ccccc2O)n1 (stereo unspecified),"35.5 µM [falling, single point]",
Cc1ccc(-n2c(O)c(C=Nc3ccccc3-c3n[nH]c(=S)[nH]c3=O)c3ccccc3c2=O)cc1C,"35.5 µM [falling, single point]",
O=C(NCc1cccs1)c1cc(-c2cccc(Cl)c2)on1,"1 µM [falling, full curve, poor fit]",
Cc1noc(C)c1S(=O)(=O)N(C)C[C@H]1Oc2c(NC(=O)Nc3ccc(C(F)(F)F)cc3)cccc2C(=O)N([C@H](C)CO)C[C@@H]1C,"20.6 µM [falling, partial curve]",
O=C(Nc1nc2ccccc2[nH]1)c1cccc([N+](=O)[O-])c1,"2 µM [falling, full curve]",
CCN(CC)S(=O)(=O)c1cccc(NC2=NCC(C)S2)c1 (stereo unspecified),"2.82 µM [rising, full curve, poor fit]",
C/C(=N\NC(=O)c1ccc(NS(=O)(=O)c2cccs2)cc1)c1ccc(C(C)(C)C)cc1,"8.2 µM [falling, partial curve]",
Cc1ccc(S(=O)(=O)N2CCOCC2)cc1NC(=O)COC(=O)c1ccc(Br)cc1,"16.4 µM [falling, single point]",

# Three entries from above, ordered by molar mass, low to high:
SMILES,AC50 [1],AC50 [2]
Cc1cc(Nc2ccccc2)nn1C(=O)c1ccc(Cl)cc1,"23.1 µM [rising, partial curve]",
O=C(CN1CCN(C(C(=O)Nc2ccc(F)cc2)c2ccccc2)CC1)NC1CC1 (stereo unspecified),"6.51 µM [rising, partial curve, poor fit]",
O=C(/C=C/c1ccccc1Cl)Nc1ccc(S(=O)(=O)Nc2ncccn2)cc1,"11.2 µM [falling, partial curve, poor fit]",

# Going on with the list.

SMILES,AC50 [1],AC50 [2]
Cc1cc(C)cc(NC(=O)N2c3ccccc3NC(=O)CC2C)c1 (stereo unspecified),"31.6 µM [falling, single point]",
COc1ccc(CCNC(=O)COC(=O)c2cc(OC)c(OC)cc2OC)cc1OC,"35.5 µM [falling, single point]",
C/C(=N\NC(=O)COc1ccc(C(C)(C)C)cc1)c1ccc(OC(F)F)cc1,"32.6 µM [rising, partial curve, poor fit]",
CCOC(=O)c1sc(-c2cccc([N+](=O)[O-])c2)cc1N,"10 µM [rising, partial curve]",
COc1cc(OC)cc(-c2c(-c3cccs3)c3cc(-c4ccc(CN5CCOCC5)cc4)ccc3n2C)c1,"29.1 µM [falling, single point]",
CCOC(=O)C(=O)C1=CN(Cc2ccccc2)C=C(C#N)C1,"35.5 µM [falling, single point]",
CCOC(=O)Cc1csc(NC(=O)Nc2ccc(Cl)cc2)n1,"8.91 µM [falling, partial curve, poor fit]",
COc1ccc(/C=N/OC/C(O)=C(\C#N)c2nc3ccccc3[nH]2)cc1,"17.8 µM [falling, single point]",
COC(=O)C1=C(C)OC(N)=C(C#N)C1c1ccccc1F (stereo unspecified),"35.5 µM [falling, single point]",
Cc1ccc(-c2csc(N=C(N)N)n2)c(C)c1,,"11.2 µM [falling, single point]"
COc1ccc(-c2c(=O)n(OCc3nc4ccccc4[nH]3)c3ccccc3[n+]2[O-])cc1,"22.4 µM [falling, single point]",
O=C(CNC(=O)c1ccccc1)OCc1nc2ccccc2s1,"2.91 µM [rising, full curve]",
NS(=O)(=O)c1ccc(N=Nc2c(=O)[nH]n3c(=O)c4c([nH]c23)CCCC4)cc1,"14.1 µM [falling, partial curve, poor fit]",
Cc1ccc(C(=O)N/N=C/c2sc(=O)n(Cc3cccc(C(=O)O)c3)c2Cl)cc1,"7.08 µM [falling, partial curve]",
COC(=O)c1ccc(NC(=O)c2c(NCc3cccc(F)c3)sc3c2CCCC3)cc1,"7.94 µM [falling, partial curve]",
O=C(NC1CCCN(Cc2ccc(Cl)cc2)C1)C1CCC1 (stereo unspecified),"35.5 µM [rising, single point]",
N/C(Cc1cccs1)=N\OC(=O)COc1ccc(Cl)cc1Cl,"11.6 µM [rising, partial curve, poor fit]",
COC(=O)c1ccccc1NC(=O)CN(C)S(=O)(=O)c1ccc(OC)c(C)c1,"32.6 µM [falling, partial curve, poor fit]",
C=CCn1c(SCC(=O)N2CC(C)OC(C)C2)nnc1-c1ccncc1 (stereo unspecified),"20.6 µM [rising, single point]",
CC(C)OC(=O)CSc1nnc(-c2ccc(Cl)cc2Cl)o1,"2.31 µM [falling, partial curve, poor fit]",
Clc1ccc(Cc2nnc(-c3ccccc3Br)o2)cc1,"14.6 µM [rising, single point]",
